In paper PMC11612440:
These are yes or no findings as the source states them, for the method shown. For some assays here: In cells and extracts the contact can be indirect. Some entries that bind do so weakly or less than the wild type.

By UniProt entry, the sequences of proteins in these tests, tags left out. Where a name states a change or a piece, a line headed by the entry shows the natural chain unless it says otherwise.
UniProt Q99PV8: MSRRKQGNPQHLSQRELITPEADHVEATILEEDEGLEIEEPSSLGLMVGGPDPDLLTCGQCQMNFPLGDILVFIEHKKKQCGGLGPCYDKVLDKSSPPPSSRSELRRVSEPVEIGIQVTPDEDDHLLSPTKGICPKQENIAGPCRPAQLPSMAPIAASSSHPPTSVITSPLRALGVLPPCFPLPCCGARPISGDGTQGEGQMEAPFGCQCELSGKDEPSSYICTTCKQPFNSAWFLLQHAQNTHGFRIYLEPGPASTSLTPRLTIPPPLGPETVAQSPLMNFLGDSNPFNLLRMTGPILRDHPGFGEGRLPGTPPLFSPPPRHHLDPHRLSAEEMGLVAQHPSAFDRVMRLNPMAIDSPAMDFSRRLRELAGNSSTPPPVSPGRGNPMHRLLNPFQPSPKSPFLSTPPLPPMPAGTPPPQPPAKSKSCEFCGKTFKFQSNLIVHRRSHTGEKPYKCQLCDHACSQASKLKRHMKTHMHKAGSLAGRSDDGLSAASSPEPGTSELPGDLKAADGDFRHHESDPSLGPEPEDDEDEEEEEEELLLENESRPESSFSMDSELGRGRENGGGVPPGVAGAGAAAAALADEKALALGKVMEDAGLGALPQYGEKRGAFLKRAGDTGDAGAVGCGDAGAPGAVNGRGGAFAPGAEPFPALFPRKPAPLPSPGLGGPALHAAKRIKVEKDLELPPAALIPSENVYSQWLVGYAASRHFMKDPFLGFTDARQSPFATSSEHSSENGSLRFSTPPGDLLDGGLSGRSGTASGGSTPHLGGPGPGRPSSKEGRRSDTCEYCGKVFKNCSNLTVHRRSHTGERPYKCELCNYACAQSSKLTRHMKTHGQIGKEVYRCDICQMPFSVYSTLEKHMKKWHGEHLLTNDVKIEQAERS
UniProt Q02248: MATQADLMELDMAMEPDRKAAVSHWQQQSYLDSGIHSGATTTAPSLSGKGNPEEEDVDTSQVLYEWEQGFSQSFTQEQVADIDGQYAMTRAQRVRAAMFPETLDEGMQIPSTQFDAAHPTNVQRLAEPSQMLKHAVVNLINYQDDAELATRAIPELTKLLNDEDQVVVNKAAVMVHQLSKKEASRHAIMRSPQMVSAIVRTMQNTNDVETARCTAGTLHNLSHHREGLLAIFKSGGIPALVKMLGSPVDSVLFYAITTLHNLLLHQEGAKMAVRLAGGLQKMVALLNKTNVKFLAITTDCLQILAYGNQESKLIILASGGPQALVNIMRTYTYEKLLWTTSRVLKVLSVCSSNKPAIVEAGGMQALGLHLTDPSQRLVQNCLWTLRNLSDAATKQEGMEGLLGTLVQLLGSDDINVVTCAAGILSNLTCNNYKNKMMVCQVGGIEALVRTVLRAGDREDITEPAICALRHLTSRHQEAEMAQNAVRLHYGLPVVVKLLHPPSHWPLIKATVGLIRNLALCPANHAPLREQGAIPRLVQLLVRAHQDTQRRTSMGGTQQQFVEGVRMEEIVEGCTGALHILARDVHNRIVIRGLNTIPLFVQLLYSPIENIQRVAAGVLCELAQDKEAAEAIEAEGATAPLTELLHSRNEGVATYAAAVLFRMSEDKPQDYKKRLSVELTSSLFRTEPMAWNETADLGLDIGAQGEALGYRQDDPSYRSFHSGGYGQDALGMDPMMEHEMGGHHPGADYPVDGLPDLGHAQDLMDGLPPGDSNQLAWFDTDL
UniProt O09106: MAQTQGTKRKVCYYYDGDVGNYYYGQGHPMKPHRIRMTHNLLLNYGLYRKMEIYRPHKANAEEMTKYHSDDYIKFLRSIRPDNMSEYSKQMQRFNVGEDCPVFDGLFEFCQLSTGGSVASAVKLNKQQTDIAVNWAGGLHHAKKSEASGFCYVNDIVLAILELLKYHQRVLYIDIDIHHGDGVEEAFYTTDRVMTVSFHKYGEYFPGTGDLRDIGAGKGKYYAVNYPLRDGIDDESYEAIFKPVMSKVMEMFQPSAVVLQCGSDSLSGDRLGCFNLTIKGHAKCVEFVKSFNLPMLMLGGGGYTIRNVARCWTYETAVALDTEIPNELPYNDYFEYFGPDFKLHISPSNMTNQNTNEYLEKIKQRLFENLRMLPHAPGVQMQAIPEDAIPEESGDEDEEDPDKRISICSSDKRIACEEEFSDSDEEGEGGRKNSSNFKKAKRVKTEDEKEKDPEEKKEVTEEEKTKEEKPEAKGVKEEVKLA
UniProt Q924A0: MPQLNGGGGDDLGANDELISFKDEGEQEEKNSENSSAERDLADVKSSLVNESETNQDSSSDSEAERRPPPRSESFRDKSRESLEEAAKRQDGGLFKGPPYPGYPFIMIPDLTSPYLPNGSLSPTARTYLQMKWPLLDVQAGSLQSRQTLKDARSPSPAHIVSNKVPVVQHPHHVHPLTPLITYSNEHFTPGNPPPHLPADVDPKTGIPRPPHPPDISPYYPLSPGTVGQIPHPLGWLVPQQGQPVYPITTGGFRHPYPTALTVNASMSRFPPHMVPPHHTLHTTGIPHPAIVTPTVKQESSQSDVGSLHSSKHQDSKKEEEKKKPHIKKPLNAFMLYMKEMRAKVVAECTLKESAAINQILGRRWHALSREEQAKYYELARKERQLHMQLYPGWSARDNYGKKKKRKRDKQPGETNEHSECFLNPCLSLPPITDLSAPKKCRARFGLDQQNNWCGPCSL

Columns and labels:
[1] = molecular target: Bcl11b-Flag (mouse Bcl11b fused with Flag tag, doxycycline-induced in intestinal organoids) (mouse) (UniProt Q99PV8); assay: co-IP; lysate of doxycycline-induced (3 days) Bcl11b-Flag organoids; anti-Flag antibody on Dynabeads Protein A/G, overnight 4 °C; IP lysis buffer 10 mM Tris-HCl pH 7.5, 100 mM NaCl, 0.5% NP-40, 1 mM EDTA; immunoblotting
[2] = molecular target: BCL11B protein, MBP-tag-fused recombinant (pETMBP.3C-Bcl11b) (mouse) (UniProt Q99PV8); assay: SPR; Bcl11b immobilised on CM5 chip (10 mM sodium acetate pH 5.0); analytes serially diluted in PBST (PBS, 0.05% Tween-20), 30 μL/min for 2 min; 25 °C; Biacore 8K plus; both purified
[3] = molecular target: Bcl11b, ectopically overexpressed (experiments of Appendix Fig. S4) (mouse) (UniProt Q99PV8); assay: co-IP; Appendix Fig. S4B-D; ectopically overexpressed Bcl11b, with or without Wnt3a; cells and constructs in the legend, not shown

Substance	binding [1]	binding [2]	further results
β-catenin, endogenous (mouse intestinal organoids and crypts) (from UniProt Q02248 1-781)	binds	–	–
HDAC1, MBP-tag-fused recombinant (pETMBP.3C-Hdac1) (from UniProt O09106 1-482)	–	binds	–
β-catenin (experiments of Appendix Fig. S4B-D) (from UniProt Q02248 1-781)	–	–	binding [3]: binds
β-catenin, MBP-tag-fused recombinant (pETMBP.3C-β-catenin) (from UniProt Q02248 1-781)	–	binds	–
TCF4, endogenous (mouse intestinal organoids and crypts) (from UniProt Q924A0 1-459)	binds	–	–
